# Laboratory results from the supplement of paper PMC4604168 (melanoma cell lines).
# The other results are listed elsewhere or left out. Repeats are few or missing, and single values can be far off.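 The apoptosis fraction was the count of cleaved-PARP antibody-stained nuclei relative to all DNA-stained nuclei, imaged in 1,536-well plates. Screening doses were set so most cells survived, and baseline and induced cleaved-PARP levels vary greatly across cell lines.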
# System: LB2518-MEL
# Experiment: cleaved PARP positive nuclei fraction relative to DMSO control; melanoma cells; higher = more apoptosis
# Conditions: library dose: low library concentration; 72 h
row,SMILES,cleaved PARP positive nuclei fraction
1,"C=CCn1c(=O)c2cnc(Nc3ccc(N4CCN(C)CC4)cc3)nc2n1-c1cccc(C(C)(C)O)n1 + O=S(=O)(c1ccccc1)N(CC(F)(F)F)c1ccc(C(O)(C(F)(F)F)C(F)(F)F)cc1 [T0901317] (first compound 0.02 µM, partner dose 1.4 µM)",85.2%
2,"O=C(Nc1cccc(Cl)c1)Nc1ncc(CCNc2ncnc3ccsc23)s1 + COc1cc(N2CCC(N3CCN(C)CC3)CC2)ccc1Nc1ncc(Cl)c(Nc2ccccc2S(=O)(=O)C(C)C)n1 [NVP-TAE684] (first compound 0.0008 µM, partner dose 0.08 µM)",92.3%
3,"C[C@]1(c2nc3c(C(N)=O)cccc3[nH]2)CCCN1 [Veliparib] + COc1cc2ncnc(Nc3ccc(Oc4ccccc4)cc3)c2cc1OC [SrcI1] (first compound 1.4 µM, partner dose 2 µM)",41.6%
4,"Cn1c(Nc2ccc(C(F)(F)F)cc2)nc2cc(Oc3ccnc(-c4ncc(C(F)(F)F)[nH]4)c3)ccc21 + COc1ccc(COc2ccc(Cc3cnc(N)nc3N)cc2OC)cc1 [GW2580] (first compound 0.08 µM, partner dose 1 µM)",246%
5,"COCC[n+]1c2c(n(Cc3cnccn3)c1C)C(=O)c1ccccc1C2=O + COc1ccc(COc2ccc(Cc3cnc(N)nc3N)cc2OC)cc1 [GW2580] (first compound 0.0004 µM, partner dose 1 µM)",93.2%
6,"Cc1ccc(NC(=O)c2cccc(N(C)C)c2)cc1NC(=O)c1ccc(O)cc1 + COC(=O)c1sccc1S(=O)(=O)Nc1ccc(Nc2ccccc2)cc1OC [GSK0660] (first compound 2 µM, partner dose 1 µM)",100%
7,"COCC[n+]1c2c(n(Cc3cnccn3)c1C)C(=O)c1ccccc1C2=O + CC(C)CCN1c2nc(Nc3cc(F)c(O)c(F)c3)ncc2N(C)C(=O)C1C [BID1870] (first compound 0.0004 µM, partner dose 0.2 µM)",106%
8,"CC(C)(C)c1cnc(CSc2cnc(NC(=O)C3CCNCC3)s2)o1 + Cc1cc([N+](=O)[O-])ccc1NS(=O)(=O)c1cc(Cl)ccc1Cl [FH535] (first compound 0.01 µM, partner dose 1 µM)",92.2%
9,"Cc1ccc(NC(=O)c2cccc(N(C)C)c2)cc1NC(=O)c1ccc(O)cc1 + CCCCCCCCCCCC1=C(O)C(=O)C=C(O)C1=O [Embelin] (first compound 2 µM, partner dose 1.2 µM)",203%
10,"Cc1ccc(NC(=O)c2cccc(N(C)C)c2)cc1NC(=O)c1ccc(O)cc1 + COc1cc(N2CCC(N3CCN(C)CC3)CC2)ccc1Nc1ncc(Cl)c(Nc2ccccc2S(=O)(=O)C(C)C)n1 [NVP-TAE684] (first compound 2 µM, partner dose 0.08 µM)",165%
11,"Cn1cncc1[C@@](N)(c1ccc(Cl)cc1)c1ccc2c(c1)c(-c1cccc(Cl)c1)cc(=O)n2C [tipifarnib] + CCc1ccc(CCOc2ccc(CC3SC(=O)NC3=O)cc2)nc1 [pioglitazone] (first compound 0.01 µM, partner dose 2 µM)",194%
12,"O=C(CCCCCCC(=O)Nc1ccccc1)NO [vorinostat] + COc1cc(N2CCC(N3CCN(C)CC3)CC2)ccc1Nc1ncc(Cl)c(Nc2ccccc2S(=O)(=O)C(C)C)n1 [NVP-TAE684] (first compound 0.08 µM, partner dose 0.08 µM)",80.1%
13,"O=C(Nc1cccc(Cl)c1)Nc1ncc(CCNc2ncnc3ccsc23)s1 + COC(=O)c1sccc1S(=O)(=O)Nc1ccc(Nc2ccccc2)cc1OC [GSK0660] (first compound 0.0008 µM, partner dose 1 µM)",79.8%
14,"C=CCn1c(=O)c2cnc(Nc3ccc(N4CCN(C)CC4)cc3)nc2n1-c1cccc(C(C)(C)O)n1 + CC(C)CCN1c2nc(Nc3cc(F)c(O)c(F)c3)ncc2N(C)C(=O)C1C [BID1870] (first compound 0.02 µM, partner dose 0.2 µM)",112%
15,"CO[C@@H]1[C@H](N(C)C(=O)c2ccccc2)C[C@H]2O[C@]1(C)n1c3ccccc3c3c4c(c5c6ccccc6n2c5c31)C(=O)NC4 [Midostaurin] + O=S(=O)(c1ccccc1)N(CC(F)(F)F)c1ccc(C(O)(C(F)(F)F)C(F)(F)F)cc1 [T0901317] (first compound 0.08 µM, partner dose 1.4 µM)",80%
16,"Nc1cccc2c1CN(C1CCC(=O)NC1=O)C2=O (configuration not stated) [lenalidomide] + COC(=O)c1sccc1S(=O)(=O)Nc1ccc(Nc2ccccc2)cc1OC [GSK0660] (first compound 1 µM, partner dose 1 µM)",188%

row,SMILES,cleaved PARP positive nuclei fraction
1,"O=C(Nc1cccc(Cl)c1)Nc1ncc(CCNc2ncnc3ccsc23)s1 + CCc1ccc(CCOc2ccc(CC3SC(=O)NC3=O)cc2)nc1 [pioglitazone] (first compound 0.0008 µM, partner dose 2 µM)",66.7%
2,"COCC[n+]1c2c(n(Cc3cnccn3)c1C)C(=O)c1ccccc1C2=O + O=c1cc(-c2cccc3c2Sc2ccccc2S3)oc(N2CCOCC2)c1 [KU55933] (first compound 0.0004 µM, partner dose 1 µM)",93.5%
3,"Nc1cccc2c1CN(C1CCC(=O)NC1=O)C2=O (configuration not stated) [lenalidomide] + COc1ccc(-c2ccc3c(N4CCOCC4)nc(N4C[C@@H](C)O[C@@H](C)C4)nc3n2)cc1CO [KU0063794] (first compound 1 µM, partner dose 0.02 µM)",79.3%
4,"NC(=O)Nc1cc(-c2cccc(F)c2)sc1C(=O)N[C@H]1CCCNC1 + Cn1cc(/C=C2\C(=O)Nc3cccnc32)c2ccccc21 [GW441756] (first compound 0.02 µM, partner dose 0.4 µM)",165%
5,"COc1cc(Nc2ncc(F)c(Nc3ccc4c(n3)NC(=O)C(C)(C)O4)n2)cc(OC)c1OC [Tamatinib] + COc1cc(N2CCC(N3CCN(C)CC3)CC2)ccc1Nc1ncc(Cl)c(Nc2ccccc2S(=O)(=O)C(C)C)n1 [NVP-TAE684] (first compound 0.4 µM, partner dose 0.08 µM)",333%
6,"NC(=O)Nc1cc(-c2cccc(F)c2)sc1C(=O)N[C@H]1CCCNC1 + CCN(CC)CCCCNc1ncc2cc(-c3cc(OC)cc(OC)c3)c(NC(=O)NC(C)(C)C)nc2n1 [PD173074] (first compound 0.02 µM, partner dose 0.1 µM)",62%
7,"O=C(CCCCCCC(=O)Nc1ccccc1)NO [vorinostat] + CCCCCCCCCCCC1=C(O)C(=O)C=C(O)C1=O [Embelin] (first compound 0.08 µM, partner dose 1.2 µM)",85%
8,"O=C(Nc1cccc(Cl)c1)Nc1ncc(CCNc2ncnc3ccsc23)s1 + COc1ccc(-c2ccc3c(N4CCOCC4)nc(N4C[C@@H](C)O[C@@H](C)C4)nc3n2)cc1CO [KU0063794] (first compound 0.0008 µM, partner dose 0.02 µM)",81.5%
9,"Cc1nc(Nc2ncc(C(=O)Nc3c(C)cccc3Cl)s2)cc(N2CCN(CCO)CC2)n1 [dasatanib] + CCN(CC)CCCCNc1ncc2cc(-c3cc(OC)cc(OC)c3)c(NC(=O)NC(C)(C)C)nc2n1 [PD173074] (first compound 0.004 µM, partner dose 0.1 µM)",82.9%
10,"CC1(C)NC(=O)N(c2ccc([N+](=O)[O-])c(C(F)(F)F)c2)C1=O [nilutamide] + COc1ccc(COc2ccc(Cc3cnc(N)nc3N)cc2OC)cc1 [GW2580] (first compound 1 µM, partner dose 1 µM)",82.7%
11,"COCC[n+]1c2c(n(Cc3cnccn3)c1C)C(=O)c1ccccc1C2=O + CCc1ccc(CCOc2ccc(CC3SC(=O)NC3=O)cc2)nc1 [pioglitazone] (first compound 0.0004 µM, partner dose 2 µM)",109%
12,"O=C(CCCCCCC(=O)Nc1ccccc1)NO [vorinostat] + COc1ccc(-c2ccc3c(N4CCOCC4)nc(N4C[C@@H](C)O[C@@H](C)C4)nc3n2)cc1CO [KU0063794] (first compound 0.08 µM, partner dose 0.02 µM)",80.2%
13,"COc1cc(Nc2ncc(F)c(Nc3ccc4c(n3)NC(=O)C(C)(C)O4)n2)cc(OC)c1OC [Tamatinib] + O=S(=O)(c1ccccc1)N(CC(F)(F)F)c1ccc(C(O)(C(F)(F)F)C(F)(F)F)cc1 [T0901317] (first compound 0.4 µM, partner dose 1.4 µM)",190%
14,"NC(=O)Nc1cc(-c2cccc(F)c2)sc1C(=O)N[C@H]1CCCNC1 + O=S(=O)(c1ccccc1)N(CC(F)(F)F)c1ccc(C(O)(C(F)(F)F)C(F)(F)F)cc1 [T0901317] (first compound 0.02 µM, partner dose 1.4 µM)",59.8%
15,"Cn1nnc2c(C(N)=O)ncn2c1=O [temozolomide] + COc1ccc(-c2ccc3c(N4CCOCC4)nc(N4C[C@@H](C)O[C@@H](C)C4)nc3n2)cc1CO [KU0063794] (first compound 2 µM, partner dose 0.02 µM)",64.1%
16,"Nc1cccc2c1CN(C1CCC(=O)NC1=O)C2=O (configuration not stated) [lenalidomide] + c1cc(-c2cnn3cc(-c4ccc(OCCN5CCCCC5)cc4)cnc23)ccn1 [Dorsomorphin] (first compound 1 µM, partner dose 0.4 µM)",87.2%

# Part of the list above, bar-delimited:
row | SMILES | cleaved PARP positive nuclei fraction
14 | NC(=O)Nc1cc(-c2cccc(F)c2)sc1C(=O)N[C@H]1CCCNC1 + O=S(=O)(c1ccccc1)N(CC(F)(F)F)c1ccc(C(O)(C(F)(F)F)C(F)(F)F)cc1 [T0901317] (first compound 0.02 µM, partner dose 1.4 µM) | 59.8%
15 | Cn1nnc2c(C(N)=O)ncn2c1=O [temozolomide] + COc1ccc(-c2ccc3c(N4CCOCC4)nc(N4C[C@@H](C)O[C@@H](C)C4)nc3n2)cc1CO [KU0063794] (first compound 2 µM, partner dose 0.02 µM) | 64.1%
